These are yes or no findings as the source states them, for the method shown. Some results given as binding are weak or reduced against the parent protein; the word gives no strength.
Columns and labels:
[1] = biological target: human CD154 expressed on the cell surface of J558L cells (murine myeloma cell line transfected with human CD154) (human) (UniProt P29965); test: flow cytometry, phage on J558L cells, anti-M13 antibody
[2] = biological target: human CD154 expressed on the cell surface of J558L cells (murine myeloma cell line transfected with human CD154) (human) (UniProt P29965); test: flow cytometry, phage (10^11 cfu) on J558L cells, anti-M13 antibody

Sequences of proteins named here, by UniProt entry; tags and fusion partners are left off. A change or cut given only in a name is not applied to a line headed by its entry.
UniProt P29965: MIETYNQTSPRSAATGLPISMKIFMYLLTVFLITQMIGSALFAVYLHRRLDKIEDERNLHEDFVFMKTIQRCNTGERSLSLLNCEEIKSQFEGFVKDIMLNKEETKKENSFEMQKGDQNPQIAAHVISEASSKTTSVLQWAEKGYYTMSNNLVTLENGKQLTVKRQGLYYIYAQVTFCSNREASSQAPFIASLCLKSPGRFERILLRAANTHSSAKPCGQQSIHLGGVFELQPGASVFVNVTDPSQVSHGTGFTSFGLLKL
UniProt P69168: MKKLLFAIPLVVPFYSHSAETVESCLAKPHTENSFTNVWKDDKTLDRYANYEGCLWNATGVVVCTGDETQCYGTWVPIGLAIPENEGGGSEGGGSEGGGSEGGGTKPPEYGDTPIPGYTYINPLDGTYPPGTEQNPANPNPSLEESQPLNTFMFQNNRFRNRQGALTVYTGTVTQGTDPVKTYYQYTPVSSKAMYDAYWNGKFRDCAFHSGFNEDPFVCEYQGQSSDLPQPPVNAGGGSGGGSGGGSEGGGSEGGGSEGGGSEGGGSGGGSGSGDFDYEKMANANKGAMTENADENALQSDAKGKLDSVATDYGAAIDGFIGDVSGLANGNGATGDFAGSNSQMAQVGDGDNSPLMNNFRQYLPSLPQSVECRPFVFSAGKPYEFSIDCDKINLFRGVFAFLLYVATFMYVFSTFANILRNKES

For “phage clone 4.6 (from UniProt P69168 19-424)”, the binding [1] was “binds” and the binding [2] was “binds”.
In the case of “phage clone 4.7 = 4.12 (from UniProt P69168 19-424)”, the binding [1] was “binds” and the binding [2] was “binds”.
“phage clone 4.10 (from UniProt P69168 19-424)” was tested, and the binding [1] was “binds” and the binding [2] was “binds”.
“phage clone 4.11 (from UniProt P69168 19-424)” was tested, and the binding [1] was “binds” and the binding [2] was “binds”.
With “phage clone 4.2 = 4.3 (from UniProt P69168 19-424)” the binding [1] was “binds” and the binding [2] was “binds”.
In the case of “phage clone 4.4 (from UniProt P69168 19-424)”, the binding [1] was “binds” and the binding [2] was “binds”.
“phage clone 4.8 (from UniProt P69168 19-424)” was tested, and the binding [1] was “binds” and the binding [2] was “binds”.

Reference: patent US20110144038A1 (FRESENIUS MEDICAL CARE DEUTSCHLAND G M B H, published 2011)
